According to paper PMC9496920, “Anti-PTK7 Monoclonal Antibodies Inhibit Angiogenesis by Suppressing PTK7 Function” (Cancers, 2022):
These are yes or no findings as the source states them, for the method shown. In cells and extracts the contact can be indirect. Some binding calls cover weakened binding; strength is not graded here. For some assays here: Sequences can lack the tags named with a protein.

Sequences of proteins named here, by UniProt entry; tags and fusion partners are left off. Residues count along the entry.
UniProt P35968, residues 20-1356: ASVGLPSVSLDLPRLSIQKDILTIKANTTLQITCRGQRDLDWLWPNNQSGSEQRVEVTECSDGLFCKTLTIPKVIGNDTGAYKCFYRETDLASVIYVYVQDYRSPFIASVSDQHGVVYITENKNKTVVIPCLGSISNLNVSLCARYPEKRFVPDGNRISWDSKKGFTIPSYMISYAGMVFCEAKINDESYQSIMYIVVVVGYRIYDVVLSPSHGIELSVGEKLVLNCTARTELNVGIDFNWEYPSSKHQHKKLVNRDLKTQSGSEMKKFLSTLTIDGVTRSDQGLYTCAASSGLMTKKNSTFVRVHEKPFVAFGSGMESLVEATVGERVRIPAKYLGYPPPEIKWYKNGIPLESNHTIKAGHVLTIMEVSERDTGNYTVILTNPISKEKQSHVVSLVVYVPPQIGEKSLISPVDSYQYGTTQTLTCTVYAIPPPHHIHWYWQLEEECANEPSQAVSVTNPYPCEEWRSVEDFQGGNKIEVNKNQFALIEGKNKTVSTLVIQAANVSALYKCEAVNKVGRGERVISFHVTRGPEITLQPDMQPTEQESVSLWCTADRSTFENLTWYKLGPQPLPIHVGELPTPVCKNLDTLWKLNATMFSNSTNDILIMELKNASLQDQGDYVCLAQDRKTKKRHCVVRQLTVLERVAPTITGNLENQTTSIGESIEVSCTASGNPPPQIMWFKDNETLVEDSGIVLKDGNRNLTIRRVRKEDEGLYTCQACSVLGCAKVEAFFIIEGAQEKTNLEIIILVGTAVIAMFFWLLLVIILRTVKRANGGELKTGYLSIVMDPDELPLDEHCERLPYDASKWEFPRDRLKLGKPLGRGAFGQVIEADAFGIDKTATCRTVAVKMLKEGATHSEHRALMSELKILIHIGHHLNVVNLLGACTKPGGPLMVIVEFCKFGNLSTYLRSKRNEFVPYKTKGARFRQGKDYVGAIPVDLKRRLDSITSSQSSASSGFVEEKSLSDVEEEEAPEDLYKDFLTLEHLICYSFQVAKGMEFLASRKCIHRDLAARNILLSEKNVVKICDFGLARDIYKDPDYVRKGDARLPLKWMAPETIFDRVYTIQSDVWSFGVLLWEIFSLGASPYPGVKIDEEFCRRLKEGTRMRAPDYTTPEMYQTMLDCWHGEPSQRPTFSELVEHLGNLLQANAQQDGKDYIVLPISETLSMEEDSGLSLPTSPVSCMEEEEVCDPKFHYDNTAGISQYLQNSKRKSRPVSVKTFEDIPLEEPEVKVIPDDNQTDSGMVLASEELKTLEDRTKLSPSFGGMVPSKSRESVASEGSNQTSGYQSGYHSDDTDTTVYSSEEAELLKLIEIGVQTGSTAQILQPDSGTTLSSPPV

Tests used:
[1] = target: T1, PTK7-FLAG (human PTK7 with a C-terminal FLAG tag) (human) (UniProt Q13308); assay: co-IP; HEK293 cells co-expressing PTK7-FLAG and KDR-HA, incubated 2 h with bovine IgG (10 ug/mL), sPTK7 (4 ug/mL) or anti-PTK7 mAbs (10 ug/mL); NP-40 lysis buffer; precipitated with anti-FLAG M2 antibodies; Western blot with anti-HA
T1 sequence: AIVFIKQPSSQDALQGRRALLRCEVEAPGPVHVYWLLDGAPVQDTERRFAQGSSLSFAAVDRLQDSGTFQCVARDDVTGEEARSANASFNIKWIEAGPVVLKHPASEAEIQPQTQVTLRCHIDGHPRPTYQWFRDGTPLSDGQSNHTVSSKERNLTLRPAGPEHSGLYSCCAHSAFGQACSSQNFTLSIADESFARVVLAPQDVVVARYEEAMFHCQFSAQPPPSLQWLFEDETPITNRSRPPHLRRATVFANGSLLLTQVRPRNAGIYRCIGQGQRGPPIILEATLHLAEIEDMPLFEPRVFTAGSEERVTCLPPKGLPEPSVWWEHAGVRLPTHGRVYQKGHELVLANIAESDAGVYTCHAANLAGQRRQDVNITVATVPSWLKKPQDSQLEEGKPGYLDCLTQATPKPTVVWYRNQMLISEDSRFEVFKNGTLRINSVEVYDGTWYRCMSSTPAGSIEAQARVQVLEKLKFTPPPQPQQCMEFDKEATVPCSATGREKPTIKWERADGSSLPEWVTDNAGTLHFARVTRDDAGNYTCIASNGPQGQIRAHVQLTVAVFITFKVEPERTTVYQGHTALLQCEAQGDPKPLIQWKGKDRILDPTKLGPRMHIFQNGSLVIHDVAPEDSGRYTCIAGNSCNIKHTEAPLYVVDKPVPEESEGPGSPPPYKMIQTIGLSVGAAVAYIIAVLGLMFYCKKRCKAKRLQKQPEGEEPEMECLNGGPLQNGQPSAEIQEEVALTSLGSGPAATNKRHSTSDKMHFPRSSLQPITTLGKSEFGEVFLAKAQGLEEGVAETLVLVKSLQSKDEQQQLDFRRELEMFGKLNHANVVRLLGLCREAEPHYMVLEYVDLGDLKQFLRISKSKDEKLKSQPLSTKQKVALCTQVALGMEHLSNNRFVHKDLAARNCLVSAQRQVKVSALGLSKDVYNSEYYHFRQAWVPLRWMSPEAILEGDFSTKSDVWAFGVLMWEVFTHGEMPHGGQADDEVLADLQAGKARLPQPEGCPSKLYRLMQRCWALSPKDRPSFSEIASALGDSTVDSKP

[2] = target: KDR-HA (human KDR with a C-terminal HA tag) (human) (UniProt P35968); assay: co-IP; competition: purified sPTK7 (4 ug/mL) added for 2 h to HEK293 cells co-expressing PTK7-FLAG and KDR-HA; read-out is KDR-HA co-precipitated with PTK7-FLAG by anti-FLAG M2, compared with bovine IgG (10 ug/mL); only the binder purified

Molecule: KDR-HA (human KDR with a C-terminal HA tag) (from UniProt P35968 20-1356) (receptor)
- binding [1]: binds

B1: soluble PTK7 (sPTK7, the extracellular domain of PTK7) (domain or fragment, UniProt Q13308 31-704)
chain: AIVFIKQPSSQDALQGRRALLRCEVEAPGPVHVYWLLDGAPVQDTERRFAQGSSLSFAAVDRLQDSGTFQCVARDDVTGEEARSANASFNIKWIEAGPVVLKHPASEAEIQPQTQVTLRCHIDGHPRPTYQWFRDGTPLSDGQSNHTVSSKERNLTLRPAGPEHSGLYSCCAHSAFGQACSSQNFTLSIADESFARVVLAPQDVVVARYEEAMFHCQFSAQPPPSLQWLFEDETPITNRSRPPHLRRATVFANGSLLLTQVRPRNAGIYRCIGQGQRGPPIILEATLHLAEIEDMPLFEPRVFTAGSEERVTCLPPKGLPEPSVWWEHAGVRLPTHGRVYQKGHELVLANIAESDAGVYTCHAANLAGQRRQDVNITVATVPSWLKKPQDSQLEEGKPGYLDCLTQATPKPTVVWYRNQMLISEDSRFEVFKNGTLRINSVEVYDGTWYRCMSSTPAGSIEAQARVQVLEKLKFTPPPQPQQCMEFDKEATVPCSATGREKPTIKWERADGSSLPEWVTDNAGTLHFARVTRDDAGNYTCIASNGPQGQIRAHVQLTVAVFITFKVEPERTTVYQGHTALLQCEAQGDPKPLIQWKGKDRILDPTKLGPRMHIFQNGSLVIHDVAPEDSGRYTCIAGNSCNIKHTEAPLYVVDKPVPEESEGPGSPPPYKMIQT
- binding [2]: binds
